Compound in the assay: COc1ccc(Cn2ccc3ccc(C(=O)NO)cc32)cc1
The assay can be described thus: dose-dependent thermal stabilisation call (2D-TPP, DLPTP, 10% FDR) (binary (1 = stabilised)); higher = stabilised by the compound. Conditions: system: HL-60 intact cells; concentration range 0.04-10 µM.

Protein sequences, listed by entry. Tags and fused reporters are not part of them. Lines headed by an entry give the natural chain unless they say otherwise; changes in a name come on top.
UniProt O43924: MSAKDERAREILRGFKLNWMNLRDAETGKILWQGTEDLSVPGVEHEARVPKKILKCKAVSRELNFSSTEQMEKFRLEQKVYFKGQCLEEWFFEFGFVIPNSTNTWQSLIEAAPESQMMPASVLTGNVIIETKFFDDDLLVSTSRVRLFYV
UniProt Q86WQ0: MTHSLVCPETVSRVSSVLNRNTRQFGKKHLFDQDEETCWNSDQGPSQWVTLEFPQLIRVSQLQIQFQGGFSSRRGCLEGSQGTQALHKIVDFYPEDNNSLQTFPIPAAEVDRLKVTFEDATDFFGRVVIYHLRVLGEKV
UniProt Q92882: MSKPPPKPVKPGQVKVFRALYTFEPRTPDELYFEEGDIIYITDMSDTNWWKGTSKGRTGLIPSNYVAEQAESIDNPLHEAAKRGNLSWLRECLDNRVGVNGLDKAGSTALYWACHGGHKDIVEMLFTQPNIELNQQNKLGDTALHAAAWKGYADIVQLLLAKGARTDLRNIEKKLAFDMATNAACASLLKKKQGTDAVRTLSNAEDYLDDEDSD
UniProt Q8WUM0: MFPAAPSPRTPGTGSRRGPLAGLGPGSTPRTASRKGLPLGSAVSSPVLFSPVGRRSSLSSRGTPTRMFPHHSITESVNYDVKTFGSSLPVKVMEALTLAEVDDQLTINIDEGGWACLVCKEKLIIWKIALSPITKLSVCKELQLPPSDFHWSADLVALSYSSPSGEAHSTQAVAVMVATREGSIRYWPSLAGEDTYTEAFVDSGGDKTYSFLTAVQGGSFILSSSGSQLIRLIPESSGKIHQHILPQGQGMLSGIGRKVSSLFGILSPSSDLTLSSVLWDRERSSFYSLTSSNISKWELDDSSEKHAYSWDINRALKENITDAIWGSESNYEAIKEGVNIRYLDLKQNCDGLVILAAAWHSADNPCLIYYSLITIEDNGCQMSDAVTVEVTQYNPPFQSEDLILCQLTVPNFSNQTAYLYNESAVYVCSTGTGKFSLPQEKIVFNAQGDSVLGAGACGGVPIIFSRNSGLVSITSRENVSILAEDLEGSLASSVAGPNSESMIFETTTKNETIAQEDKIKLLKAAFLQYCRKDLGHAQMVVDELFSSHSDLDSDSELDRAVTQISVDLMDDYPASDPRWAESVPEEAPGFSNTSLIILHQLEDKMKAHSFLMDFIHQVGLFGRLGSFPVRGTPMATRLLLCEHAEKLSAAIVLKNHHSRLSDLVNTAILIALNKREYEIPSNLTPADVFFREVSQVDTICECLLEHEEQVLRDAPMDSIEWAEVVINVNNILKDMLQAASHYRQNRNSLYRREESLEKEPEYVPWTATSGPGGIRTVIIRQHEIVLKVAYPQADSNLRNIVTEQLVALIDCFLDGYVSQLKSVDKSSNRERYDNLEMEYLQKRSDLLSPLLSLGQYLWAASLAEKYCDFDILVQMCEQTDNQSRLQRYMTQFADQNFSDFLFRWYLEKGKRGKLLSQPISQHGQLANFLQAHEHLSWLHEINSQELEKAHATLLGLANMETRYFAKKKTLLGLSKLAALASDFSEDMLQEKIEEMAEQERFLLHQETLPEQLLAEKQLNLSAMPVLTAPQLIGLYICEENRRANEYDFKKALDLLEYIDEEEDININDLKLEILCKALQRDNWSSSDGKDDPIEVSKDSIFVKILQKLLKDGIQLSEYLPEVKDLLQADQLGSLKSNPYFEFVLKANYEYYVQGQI
UniProt Q13371: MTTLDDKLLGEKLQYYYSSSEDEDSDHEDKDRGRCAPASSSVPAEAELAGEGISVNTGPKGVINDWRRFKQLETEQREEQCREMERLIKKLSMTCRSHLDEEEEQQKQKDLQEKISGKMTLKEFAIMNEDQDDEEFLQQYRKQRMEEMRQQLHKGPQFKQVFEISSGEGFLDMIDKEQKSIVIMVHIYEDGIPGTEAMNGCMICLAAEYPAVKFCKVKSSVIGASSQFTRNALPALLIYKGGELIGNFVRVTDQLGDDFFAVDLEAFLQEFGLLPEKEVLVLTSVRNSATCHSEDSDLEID
UniProt O15504: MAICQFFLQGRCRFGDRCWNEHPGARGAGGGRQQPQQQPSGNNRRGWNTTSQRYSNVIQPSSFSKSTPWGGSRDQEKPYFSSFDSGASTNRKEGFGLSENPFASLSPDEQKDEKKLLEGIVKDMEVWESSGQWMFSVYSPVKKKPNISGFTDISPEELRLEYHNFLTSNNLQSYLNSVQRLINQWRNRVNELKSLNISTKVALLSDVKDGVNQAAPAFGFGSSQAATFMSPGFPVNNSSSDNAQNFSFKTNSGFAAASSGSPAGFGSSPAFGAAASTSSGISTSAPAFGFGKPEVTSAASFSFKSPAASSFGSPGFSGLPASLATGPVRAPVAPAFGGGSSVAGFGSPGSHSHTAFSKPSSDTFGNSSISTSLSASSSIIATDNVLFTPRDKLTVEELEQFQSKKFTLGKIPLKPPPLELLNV
UniProt Q9H1P3, whole entry: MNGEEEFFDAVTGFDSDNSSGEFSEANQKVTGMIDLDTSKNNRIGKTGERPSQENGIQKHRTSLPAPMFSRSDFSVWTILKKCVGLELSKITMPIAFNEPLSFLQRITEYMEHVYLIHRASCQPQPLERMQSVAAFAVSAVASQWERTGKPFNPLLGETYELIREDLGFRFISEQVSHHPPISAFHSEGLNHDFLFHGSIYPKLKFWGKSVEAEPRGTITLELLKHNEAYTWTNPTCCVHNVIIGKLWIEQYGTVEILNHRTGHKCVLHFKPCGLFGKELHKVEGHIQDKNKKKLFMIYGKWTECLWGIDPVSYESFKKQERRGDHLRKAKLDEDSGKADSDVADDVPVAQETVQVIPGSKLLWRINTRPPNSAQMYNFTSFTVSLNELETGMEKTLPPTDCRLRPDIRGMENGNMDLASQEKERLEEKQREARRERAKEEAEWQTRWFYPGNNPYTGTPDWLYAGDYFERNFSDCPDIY
UniProt O96013: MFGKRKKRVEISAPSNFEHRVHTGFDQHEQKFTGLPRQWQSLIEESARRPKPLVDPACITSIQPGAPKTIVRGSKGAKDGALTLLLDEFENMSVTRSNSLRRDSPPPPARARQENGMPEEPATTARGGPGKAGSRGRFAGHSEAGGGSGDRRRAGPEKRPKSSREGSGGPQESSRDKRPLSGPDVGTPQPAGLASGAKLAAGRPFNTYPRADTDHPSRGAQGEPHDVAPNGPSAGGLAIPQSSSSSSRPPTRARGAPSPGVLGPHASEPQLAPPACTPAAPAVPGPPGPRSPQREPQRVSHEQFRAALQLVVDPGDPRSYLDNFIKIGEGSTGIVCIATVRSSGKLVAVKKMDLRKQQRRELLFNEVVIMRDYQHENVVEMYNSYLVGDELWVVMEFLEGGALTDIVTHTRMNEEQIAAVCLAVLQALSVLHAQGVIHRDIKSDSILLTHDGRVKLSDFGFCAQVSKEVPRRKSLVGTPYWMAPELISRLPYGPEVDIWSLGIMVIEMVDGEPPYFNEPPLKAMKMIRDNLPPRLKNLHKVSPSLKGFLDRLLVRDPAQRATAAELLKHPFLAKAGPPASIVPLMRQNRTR
UniProt P50583: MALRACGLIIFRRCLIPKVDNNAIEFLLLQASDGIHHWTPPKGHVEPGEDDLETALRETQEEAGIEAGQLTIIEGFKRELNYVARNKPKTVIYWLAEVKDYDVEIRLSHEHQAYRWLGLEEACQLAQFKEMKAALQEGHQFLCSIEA
UniProt P80303: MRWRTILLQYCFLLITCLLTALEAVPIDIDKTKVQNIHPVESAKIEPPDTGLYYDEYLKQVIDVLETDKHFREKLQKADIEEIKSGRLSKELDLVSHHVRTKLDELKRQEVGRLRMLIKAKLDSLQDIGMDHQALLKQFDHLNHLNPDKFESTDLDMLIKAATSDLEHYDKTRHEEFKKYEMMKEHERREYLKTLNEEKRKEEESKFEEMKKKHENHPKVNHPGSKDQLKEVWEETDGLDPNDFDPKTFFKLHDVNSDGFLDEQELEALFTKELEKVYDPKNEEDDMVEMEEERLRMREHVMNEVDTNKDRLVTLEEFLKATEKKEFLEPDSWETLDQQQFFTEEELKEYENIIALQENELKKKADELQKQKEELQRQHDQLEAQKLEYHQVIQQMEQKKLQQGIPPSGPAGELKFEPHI
UniProt Q9BRP1: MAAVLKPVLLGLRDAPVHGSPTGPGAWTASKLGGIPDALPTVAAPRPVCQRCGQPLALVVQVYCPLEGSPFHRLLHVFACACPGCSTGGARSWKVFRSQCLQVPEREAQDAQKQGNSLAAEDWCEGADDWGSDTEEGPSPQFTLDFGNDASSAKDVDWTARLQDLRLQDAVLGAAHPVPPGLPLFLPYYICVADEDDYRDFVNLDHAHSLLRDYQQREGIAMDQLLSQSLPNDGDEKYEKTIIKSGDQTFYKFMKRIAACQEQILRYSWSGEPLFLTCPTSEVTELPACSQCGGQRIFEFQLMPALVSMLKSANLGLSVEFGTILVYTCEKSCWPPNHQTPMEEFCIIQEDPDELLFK
UniProt Q16342: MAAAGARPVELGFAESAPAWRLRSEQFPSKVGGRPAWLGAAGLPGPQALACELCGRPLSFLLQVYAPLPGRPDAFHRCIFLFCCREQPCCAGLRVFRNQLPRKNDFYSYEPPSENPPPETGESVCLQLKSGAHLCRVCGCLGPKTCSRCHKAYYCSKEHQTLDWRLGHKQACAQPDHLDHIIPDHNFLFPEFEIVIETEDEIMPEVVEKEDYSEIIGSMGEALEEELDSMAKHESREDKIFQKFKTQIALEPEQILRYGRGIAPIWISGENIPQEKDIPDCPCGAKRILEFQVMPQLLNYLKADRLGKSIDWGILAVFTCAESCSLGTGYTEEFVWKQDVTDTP
UniProt Q96DE0: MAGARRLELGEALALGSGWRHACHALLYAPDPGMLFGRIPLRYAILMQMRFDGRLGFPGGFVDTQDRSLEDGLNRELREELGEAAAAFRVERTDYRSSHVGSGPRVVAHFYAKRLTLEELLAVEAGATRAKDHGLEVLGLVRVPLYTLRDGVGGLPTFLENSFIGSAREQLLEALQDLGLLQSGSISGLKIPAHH
UniProt P22061: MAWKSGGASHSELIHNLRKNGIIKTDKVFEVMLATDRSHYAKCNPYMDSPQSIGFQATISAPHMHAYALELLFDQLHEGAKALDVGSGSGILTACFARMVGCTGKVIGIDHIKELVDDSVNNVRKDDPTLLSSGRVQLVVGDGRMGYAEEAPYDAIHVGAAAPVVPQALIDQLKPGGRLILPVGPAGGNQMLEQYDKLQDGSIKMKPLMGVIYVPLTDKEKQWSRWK
UniProt Q9H4L5: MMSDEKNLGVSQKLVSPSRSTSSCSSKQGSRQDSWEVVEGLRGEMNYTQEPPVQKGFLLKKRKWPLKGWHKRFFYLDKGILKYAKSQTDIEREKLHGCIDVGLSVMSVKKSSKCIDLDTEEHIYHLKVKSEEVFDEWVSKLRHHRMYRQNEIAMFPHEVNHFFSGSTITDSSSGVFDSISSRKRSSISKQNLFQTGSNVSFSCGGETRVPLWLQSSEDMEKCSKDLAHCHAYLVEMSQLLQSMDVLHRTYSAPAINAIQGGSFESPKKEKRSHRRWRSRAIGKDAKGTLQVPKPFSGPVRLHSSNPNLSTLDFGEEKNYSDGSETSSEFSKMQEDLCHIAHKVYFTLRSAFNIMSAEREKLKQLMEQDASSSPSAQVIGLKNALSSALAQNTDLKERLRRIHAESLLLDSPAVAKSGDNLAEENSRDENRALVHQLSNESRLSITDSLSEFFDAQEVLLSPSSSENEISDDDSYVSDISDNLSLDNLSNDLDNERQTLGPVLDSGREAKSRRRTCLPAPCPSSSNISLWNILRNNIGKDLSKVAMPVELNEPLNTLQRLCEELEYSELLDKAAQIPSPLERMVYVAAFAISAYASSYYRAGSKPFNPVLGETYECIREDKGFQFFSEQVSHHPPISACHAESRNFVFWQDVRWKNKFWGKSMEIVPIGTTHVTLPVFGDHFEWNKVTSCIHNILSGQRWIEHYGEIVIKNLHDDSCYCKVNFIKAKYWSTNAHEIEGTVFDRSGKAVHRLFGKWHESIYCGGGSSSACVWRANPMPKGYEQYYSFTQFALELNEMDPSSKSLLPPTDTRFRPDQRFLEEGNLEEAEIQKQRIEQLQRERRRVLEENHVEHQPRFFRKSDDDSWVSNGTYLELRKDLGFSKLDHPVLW
UniProt P55809: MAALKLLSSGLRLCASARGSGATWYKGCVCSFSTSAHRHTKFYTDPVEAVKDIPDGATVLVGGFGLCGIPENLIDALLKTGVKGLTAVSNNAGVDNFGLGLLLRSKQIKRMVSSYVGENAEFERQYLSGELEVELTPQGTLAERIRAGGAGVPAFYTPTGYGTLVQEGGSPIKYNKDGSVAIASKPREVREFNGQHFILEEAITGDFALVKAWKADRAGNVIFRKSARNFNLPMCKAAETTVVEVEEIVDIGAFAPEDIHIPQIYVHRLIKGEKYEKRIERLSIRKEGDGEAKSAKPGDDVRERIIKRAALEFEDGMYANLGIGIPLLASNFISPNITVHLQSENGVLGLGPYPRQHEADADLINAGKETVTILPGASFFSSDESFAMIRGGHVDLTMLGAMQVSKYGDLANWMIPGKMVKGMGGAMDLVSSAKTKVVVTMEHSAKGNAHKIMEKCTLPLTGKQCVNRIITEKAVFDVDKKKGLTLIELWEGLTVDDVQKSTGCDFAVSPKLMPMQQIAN

Some of the results follow.

As to OGFR (UniProt Q9NZT2), the “dose-dependent thermal stabilisation call” value was inactive: 0.

Turning to P4HTM (UniProt Q9NXG6), the “dose-dependent thermal stabilisation call” value is inactive: 0.

Regarding PACS1 (UniProt Q6VY07), the “dose-dependent thermal stabilisation call” value is inactive: 0.

Consider PBK (UniProt Q96KB5), for which the “dose-dependent thermal stabilisation call” value is inactive: 0.

For PAFAH1B3 (UniProt Q15102), the “dose-dependent thermal stabilisation call” value is inactive: 0.

With PEX1 (UniProt O43933), the “dose-dependent thermal stabilisation call” value was inactive: 0.

In the case of PCYOX1 (UniProt Q9UHG3), the “dose-dependent thermal stabilisation call” value was inactive: 0.

As for PDE6D (UniProt O43924), the “dose-dependent thermal stabilisation call” value is inactive: 0.

Consider NR2C2AP (UniProt Q86WQ0), for which the “dose-dependent thermal stabilisation call” value is inactive: 0.

OAS3 (UniProt Q9Y6K5): the “dose-dependent thermal stabilisation call” value was inactive: 0.

For the target OSTF1 (UniProt Q92882), the “dose-dependent thermal stabilisation call” value was inactive: 0.

Take NUP133 (UniProt Q8WUM0): the “dose-dependent thermal stabilisation call” value was inactive: 0.

As to OLA1 (UniProt Q9NTK5), the “dose-dependent thermal stabilisation call” value is inactive: 0.

In the case of PDCL (UniProt Q13371), the “dose-dependent thermal stabilisation call” value was inactive: 0.

Regarding NUPL2 (UniProt O15504), the “dose-dependent thermal stabilisation call” value was inactive: 0.

As to OSBPL2 (UniProt Q9H1P3), the “dose-dependent thermal stabilisation call” value is inactive: 0.

For PCBP1 (UniProt Q15365), the “dose-dependent thermal stabilisation call” value was inactive: 0.

For OXSR1 (UniProt O95747), the “dose-dependent thermal stabilisation call” value is inactive: 0.

Turning to NUP155 (UniProt O75694), the “dose-dependent thermal stabilisation call” value was inactive: 0.

In the case of PAK4 (UniProt O96013), the “dose-dependent thermal stabilisation call” value is inactive: 0.

Regarding PEX3 (UniProt P56589), the “dose-dependent thermal stabilisation call” value was inactive: 0.

For the target NRF1 (UniProt Q16656), the “dose-dependent thermal stabilisation call” value was inactive: 0.

As for NUDT2 (UniProt P50583), the “dose-dependent thermal stabilisation call” value was inactive: 0.

On to NUCB2 (UniProt P80303), for which the “dose-dependent thermal stabilisation call” value was inactive: 0.

Turning to PAAF1 (UniProt Q9BRP4), the “dose-dependent thermal stabilisation call” value was inactive: 0.

As to PDCD2L (UniProt Q9BRP1), the “dose-dependent thermal stabilisation call” value is inactive: 0.

Regarding PDCD2 (UniProt Q16342), the “dose-dependent thermal stabilisation call” value is inactive: 0.

OPA1 (UniProt O60313): the “dose-dependent thermal stabilisation call” value was inactive: 0.

As to PDCD7 (UniProt Q8N8D1), the “dose-dependent thermal stabilisation call” value was inactive: 0.

As for NUFIP2 (UniProt Q7Z417), the “dose-dependent thermal stabilisation call” value is inactive: 0.

Turning to PDE3B (UniProt Q13370), the “dose-dependent thermal stabilisation call” value was inactive: 0.

With OSGEP (UniProt Q9NPF4), the “dose-dependent thermal stabilisation call” value is inactive: 0.

Turning to NUDT16 (UniProt Q96DE0), the “dose-dependent thermal stabilisation call” value was inactive: 0.

As for PCNT (UniProt O95613), the “dose-dependent thermal stabilisation call” value is inactive: 0.

Regarding PCMT1 (UniProt P22061), the “dose-dependent thermal stabilisation call” value was active: 1.

With OSBPL3 (UniProt Q9H4L5), the “dose-dependent thermal stabilisation call” value was inactive: 0.

In the case of OXCT1 (UniProt P55809), the “dose-dependent thermal stabilisation call” value was inactive: 0.

For the origin of these results see the supplement of paper PMC7666118.
